Measured values published in PMC11447181 (Nature Communications, 2024).
Results are given in words; binding and its absence hold for the method and conditions named.

Chains of the proteins cited; added tags and fusions are not shown.
UniProt Q9BZV2: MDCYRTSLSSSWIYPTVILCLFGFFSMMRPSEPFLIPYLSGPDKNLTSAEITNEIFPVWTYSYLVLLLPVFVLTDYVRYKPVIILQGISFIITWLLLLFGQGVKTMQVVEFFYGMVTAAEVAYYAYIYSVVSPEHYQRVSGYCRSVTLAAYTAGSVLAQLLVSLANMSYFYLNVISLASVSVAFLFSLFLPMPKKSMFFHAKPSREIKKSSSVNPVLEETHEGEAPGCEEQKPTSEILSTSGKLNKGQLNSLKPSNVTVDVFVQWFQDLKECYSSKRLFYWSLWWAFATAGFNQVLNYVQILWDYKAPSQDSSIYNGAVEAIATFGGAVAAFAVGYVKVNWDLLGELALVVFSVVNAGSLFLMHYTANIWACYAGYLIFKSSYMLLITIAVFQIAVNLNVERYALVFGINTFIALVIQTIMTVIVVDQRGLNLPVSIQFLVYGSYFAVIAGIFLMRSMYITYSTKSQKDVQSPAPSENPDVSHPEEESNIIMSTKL

Target: full-length, wildtype human SLC19A3 (hSLC19A3-wt) (human) (UniProt Q9BZV2)
Test: SEC; purified hSLC19A3-wt on Superdex S200 10/300 Increase in 20 mM Tris-HCl pH7.4, 150 mM NaCl, 0.002% LMNG, 0.0002% CHS; both purified

Substance: full-length, wildtype human SLC19A3 (hSLC19A3-wt) (from UniProt Q9BZV2 1-496)
- binding: no binding
